Laboratory results: PubChem BioAssay AID2685 (National Center for Advancing Translational Sciences (NCATS), 2010)
The other results are listed elsewhere or left out. Further columns of the screen follow, without active or inactive calls. Compounds called inactive in the main read-out are mostly missing here. Words in brackets tell the shape of the fitted curve; partial curves, single points and poor fits give uncertain potencies.

Assay: qHTS Assay for Lipid Storage Modulators in Drosophila S3 Cells;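 for cell number change: cells counted by Cell Tracker Red CMTPX staining in the red channel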
Details: BODIPY lipid droplet fluorescence, 18-24 h; for cell number change: measured here: cell count max response, cells fed with added oleic acid
How it was run: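 Laser-scanning cytometry quantifies lipid droplet accumulation (500–530 nm total intensity; droplet/cell object ratio) in oleic acid-fed (400 uM added) Drosophila S3 cells treated with a concentration series. 20 uM Triacsin C defined 100% inhibition.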

[1] = measured here: lipid fluorescence (Fed channel) AC50, cells fed with added oleic acid
[2] = measured here: cell number channel AC50, cells fed with added oleic acid

Row | Structure (SMILES) | AC50 [1] | cell number change | AC50 [2]
1 | Cc1nn(-c2ccc(N3CCOCC3)nn2)c(C)c1CCC(=O)Nc1ccccc1 | 29.1 µM [rising, single point] | – | –
2 | Cc1ccc(NC(=O)c2cc(C)nc3ccccc23)cc1 | 20.6 µM [falling, single point] | 11.8% | –
3 | CC(C)Oc1cccc(C(=O)NC(=S)Nc2ccc3c4c(cccc24)CC3)c1 | 0.184 µM [falling, full curve, poor fit] | -12.2% | –
4 | CCN(CC)S(=O)(=O)c1cc(NC(=O)C(C)OC(=O)c2[nH]c(C)c(C(C)=O)c2C)ccc1C (stereo not drawn) | – | -35.4% | 4.61 µM [falling, partial curve]
5 | O=C(Nc1ccc(C(=O)N2CCCCC2)cc1)c1ccc(Br)cc1 | – | -17.3% | –
6 | CCOC(=O)Nc1ccc(S(=O)(=O)Nc2nc(C)cc(C)n2)cc1 | 18.4 µM [falling, single point] | -8.41% | 2.06 µM [falling, partial curve, poor fit]
7 | Cc1c(C)n(CCCN(C)C)c2ncnc(NCc3ccccc3)c12 | – | 52.8% | 29.1 µM [rising, single point]
8 | CCCCNC(=S)NNC(=O)c1ccc(Br)o1 | 2.91 µM [rising, partial curve] | 2.57% | –
9 | COc1ccc(CCC(=O)Nc2cc(Cl)ccc2OC)cc1 | 20.6 µM [rising, partial curve] | 176% | 6.51 µM [rising, partial curve]
10 | O=C(c1cnn2c(C(F)(F)F)cc(-c3ccco3)nc12)N1CCCc2ccccc21 | – | -1.44% | –
11 | Cc1nn(CC(=O)O)c(C)c1Cl | 0.146 µM [falling, full curve, poor fit] | -17% | –
12 | CCCC[C@@H]1CNCCN1CCCc1cc(OC)c(OC)c(OC)c1 | 0.411 µM [falling, full curve] | -24.4% | 0.146 µM [falling, full curve, poor fit]
13 | Cc1ccc(-c2cc(C(=O)N/N=C/c3ccco3)[nH]n2)cc1 | – | -39.9% | 32.6 µM [falling, single point]
14 | CCOC(=O)c1cnc(SCC(C)C)nc1N | – | -11.5% | –
15 | CCCC(C)NC(=O)Cc1ccc(Br)cc1 (stereo not drawn) | 2.06 µM [falling, partial curve] | -1.49% | –
16 | COc1ccc(-c2nn(-c3ccccc3)cc2CO)cc1 | – | 5.06% | 0.731 µM [rising, partial curve, poor fit]
17 | O=C(O)c1cc(-c2c[nH]c3ccccc23)nc2ccc3ccccc3c12 | – | 34.4% | 29.1 µM [rising, single point]
18 | O=C(CN(CCCN1CCOCC1)C(=O)Cn1nnc(-c2ccc(F)cc2)n1)NC1CCCCC1 | 2.31 µM [falling, partial curve, poor fit] | 0.263% | –
19 | CC12CCC(C/C1=N/O)C2(C)CBr (stereo not drawn) | 2.59 µM [falling, full curve] | -25.1% | 2.06 µM [falling, partial curve, poor fit]

Row | Structure (SMILES) | AC50 [1] | cell number change | AC50 [2]
20 | CNC(=S)N/N=C/c1cn(Cc2ccc(C)cc2)c2ccccc12 | – | -3.47% | –
21 | CC12CCC(C(=O)NNc3ccc([N+](=O)[O-])cc3)(CC1=O)C2(C)C (stereo not drawn) | – | -0.393% | –
22 | CCS(=O)(=O)c1nc2ccccc2n1Cc1ccccn1 | 29.1 µM [falling, single point] | -46.3% | 29.1 µM [falling, single point]
23 | COc1ccc(-n2nc3ccc(N)cc3n2)cc1Cl | 29.1 µM [falling, single point] | -13.9% | –
24 | CCn1c(CNC(=O)COc2ccc(C(C)C)cc2)nnc1SCC(=O)Nc1ccccc1 | – | 53.8% | 23.1 µM [rising, single point]
25 | COc1ccc(CCNC(=O)CCc2ccc(S(=O)(=O)NCC(C)C)cc2)cc1OC | 11.6 µM [falling, partial curve, poor fit] | -31% | 14.6 µM [falling, partial curve, poor fit]
26 | O=C(Nc1ccccc1)N1CCSc2cc(Cl)ccc21 | – | 60.1% | 23.1 µM [rising, partial curve, poor fit]
27 | O=C(NCCCn1ccnc1)c1sc2cccc(F)c2c1Cl | 1.3 µM [rising, partial curve] | 1.39% | 0.82 µM [rising, full curve, poor fit]
28 | CC1(C)CC(n2c(NCCO)nc3c(c2=O)C2(CCCC2)Cc2ccccc2-3)CCO1 (stereo not drawn) | 0.103 µM [falling, full curve, poor fit] | -2.67% | –
29 | Cc1onc(-c2c(F)cccc2Cl)c1C(=O)OCC(=O)Nc1c(C)n(C)n(-c2ccccc2)c1=O | 14.6 µM [falling, partial curve] | -21.9% | –
30 | CCCCN(C(=O)c1cnc2n(c1=O)CCS2)c1ccccc1 | – | 5.74% | 1.16 µM [falling, full curve]
31 | Cc1ccc(NC(=O)CSc2nncn2N)cc1C | – | 30.3% | 0.0651 µM [rising, full curve, poor fit]
32 | Cc1cccc(N2C(=O)CN=C2Nc2nc(C)cc(C)n2)c1 | 0.731 µM [rising, full curve] | 33.4% | 6.51 µM [rising, partial curve]
33 | CCN(CC)CCN(C(=O)c1ccc(S(=O)(=O)N(CC)c2ccccc2)cc1)c1nc2c(OC)ccc(OC)c2s1 | 0.82 µM [rising, single point] | -0.215% | –
34 | CC(C)N1C(=O)/C(=C\c2nc3ccccc3c(=O)[nH]2)c2ccccc21 | 0.00461 µM [rising, full curve, poor fit] | -5.27% | 0.00461 µM [rising, full curve, poor fit]
35 | COc1cn(-c2ccccc2)nc1C(=O)Nc1ccc(C)cc1 | 6.51 µM [rising, single point] | 33.3% | 13 µM [rising, partial curve, poor fit]
36 | CCOc1cc(/C=N/O)ccc1OCC(=O)Nc1cccc(C)c1 | – | 28.3% | –
37 | O=C(N/N=C/c1ccc(OC(F)F)cc1OC(F)F)c1cccc(S(=O)(=O)N2CCOCC2)c1 | 4.61 µM [rising, partial curve] | 57.8% | 5.8 µM [rising, full curve]
38 | CC(=O)OC[C@H]1COc2ccc3ccccc3c2[C@H]1N(C)C(C)=O | 0.58 µM [falling, full curve] | -51.4% | 1.03 µM [falling, full curve, poor fit]

3 structures from above, arranged by length of the SMILES, high to low:
Row | Structure (SMILES) | AC50 [1] | cell number change | AC50 [2]
28 | CC1(C)CC(n2c(NCCO)nc3c(c2=O)C2(CCCC2)Cc2ccccc2-3)CCO1 (stereo not drawn) | 0.103 µM [falling, full curve, poor fit] | -2.67% | –
38 | CC(=O)OC[C@H]1COc2ccc3ccccc3c2[C@H]1N(C)C(C)=O | 0.58 µM [falling, full curve] | -51.4% | 1.03 µM [falling, full curve, poor fit]
30 | CCCCN(C(=O)c1cnc2n(c1=O)CCS2)c1ccccc1 | – | 5.74% | 1.16 µM [falling, full curve]

(continued)

Row | Structure (SMILES) | AC50 [1] | cell number change | AC50 [2]
39 | Cc1ccc2c(CC(=O)NCc3ccc4c(c3)OCO4)coc2c1 | 29.1 µM [rising, single point] | 23.9% | –
40 | O=C(CSc1ccccn1)Nc1ccc(Cl)cn1 | 0.58 µM [falling, partial curve, poor fit] | -13.7% | –
41 | O=C(COc1ccc(S(=O)(=O)N2CCOCC2)cc1)NCCN1CCOCC1 | – | 11.8% | –
42 | CC(Oc1ccc(Cl)cc1Cl)C(=O)N/N=C1\CCCc2ccccc21 (stereo not drawn) | 0.058 µM [rising, partial curve, poor fit] | 22.5% | 0.092 µM [rising, full curve, poor fit]
43 | O=C(CSc1n[nH]c(-c2ccccc2F)n1)Nc1cc(F)ccc1F | 29.1 µM [falling, partial curve, poor fit] | 22.7% | –
44 | CC1CCN(C(=O)C2CCC(=O)N(Cc3ccc(Cl)cc3)C2)CC1 (stereo not drawn) | 18.4 µM [rising, single point] | – | –
45 | CC(=O)c1ccc(N2CCN(S(=O)(=O)c3cn(C)c(C)n3)CC2)cc1 | 25.9 µM [rising, partial curve] | 43.6% | 20.6 µM [rising, partial curve]
46 | CCc1ccc2nc(N(CCCN(C)C)C(=O)c3ccc(C(=O)c4ccccc4)cc3)sc2c1 | 2.06 µM [rising, partial curve, poor fit] | -30.4% | 3.26 µM [rising, partial curve, poor fit]
47 | Cc1ccc(S(=O)(=O)NCC(=O)N(CC(=O)NC2CCCCC2)CC2CCCO2)cc1 (stereo not drawn) | 6.51 µM [falling, single point] | 48.6% | 20.6 µM [rising, single point]
48 | N#Cc1ccc(Oc2ccc(S(=O)(=O)N3CCCC3)cn2)cc1 | – | 10% | –
49 | COC(=O)c1cc2c(ccn2-c2ccc(F)cc2)n1CC(=O)C(C)(C)C | 0.184 µM [falling, full curve, poor fit] | -29.4% | –
50 | O=C(CC(SCc1ccco1)c1ccc(O)cc1)c1cccs1 (stereo not drawn) | 29.1 µM [falling, single point] | -31.1% | 7.31 µM [falling, partial curve]
51 | CCn1c(SCC(=O)N2CCCCCC2)nc2c([nH]c3ccccc32)c1=O | – | 11.3% | 0.13 µM [rising, full curve, poor fit]
52 | O=C(Nc1cccn2ncnc12)c1cccc(C(F)(F)F)c1 | – | -15.8% | –
53 | CC(=O)N(C)/C=C1\Sc2ccccc2C1=O | 6.51 µM [falling, single point] | -1.53% | –
54 | COc1ccc(Nc2nc(N)c([N+](=O)[O-])c(N3CCCC3)n2)cc1 | – | 11.7% | 0.651 µM [rising, single point]
55 | Cc1csc(=O)n1CC(=O)OCC(=O)N(CC(C)C)c1c(N)n(Cc2ccccc2)c(=O)[nH]c1=O | 0.517 µM [falling, full curve] | – | 0.517 µM [falling, full curve, poor fit]
56 | O=C(O)C1C2C=CC(C2)C1C(=O)Nc1ccc(C(=O)N2CCCCC2)cc1 (stereo not drawn) | 18.4 µM [rising, single point] | 21.6% | –
